Experimental data: patent US20160000866A1
No constants are given. Whether binding was seen depends on the method and setting. Some binding calls cover weakened binding; strength is not graded here.

Sequences of proteins named here, by UniProt entry; tags and fusion partners are left off. A change or cut given only in a name is not applied to a line headed by its entry.
UniProt Q8BPS4: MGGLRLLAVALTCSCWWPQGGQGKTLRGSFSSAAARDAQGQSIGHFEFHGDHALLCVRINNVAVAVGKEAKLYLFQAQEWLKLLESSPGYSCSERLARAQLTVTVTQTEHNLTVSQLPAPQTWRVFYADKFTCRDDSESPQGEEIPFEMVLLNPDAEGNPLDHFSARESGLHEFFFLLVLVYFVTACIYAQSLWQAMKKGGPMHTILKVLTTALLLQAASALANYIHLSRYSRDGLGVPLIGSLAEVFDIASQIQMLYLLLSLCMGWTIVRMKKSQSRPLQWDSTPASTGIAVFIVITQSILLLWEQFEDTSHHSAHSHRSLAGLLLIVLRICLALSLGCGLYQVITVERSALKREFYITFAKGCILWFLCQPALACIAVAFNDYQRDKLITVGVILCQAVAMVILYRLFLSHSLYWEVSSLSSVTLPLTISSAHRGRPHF
UniProt Q96CG8: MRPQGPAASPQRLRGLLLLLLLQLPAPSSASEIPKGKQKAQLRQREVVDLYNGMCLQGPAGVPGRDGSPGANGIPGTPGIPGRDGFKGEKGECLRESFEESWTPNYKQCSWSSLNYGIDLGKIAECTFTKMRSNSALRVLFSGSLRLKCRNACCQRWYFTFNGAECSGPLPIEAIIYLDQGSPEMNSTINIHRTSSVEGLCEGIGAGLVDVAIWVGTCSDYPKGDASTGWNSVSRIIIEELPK

What was measured:
[1] = target: murine GPR180 with a C terminal myc epitope tag, expressed on transfected CHO-K1 cells (murine) (UniProt Q8BPS4); test: co-localization on GPR180-myc transfected CHO-K1 cells
[2] = target: murine GPR180 with a C terminal myc epitope tag, expressed on transfected CHO-K1 cells (murine) (UniProt Q8BPS4); test: immunostaining, Gpr180-myc transfected CHO-K1 cells
[3] = target: murine GPR180 with a C terminal myc epitope tag, expressed on transfected CHO-K1 cells (murine) (UniProt Q8BPS4); test: immunofluorescence confocal microscopy, GPR180-myc transfected CHO-K1 cells, 125 ng/ml hCthrc1, 10 min on ice
[4] = target: murine GPR180 with a C terminal myc epitope tag, expressed on transfected CHO-K1 cells (murine) (UniProt Q8BPS4); test: immunocytochemistry, GPR180-myc transfected CHO-K1 cells

binding [1]: binds
binding [2]: binds
binding [3]: binds
binding [4]: binds
Substance: untagged hCthrc1 expressed in CHO-K1 cells (human Collagen Triple Helix Repeat Containing 1) (from UniProt Q96CG8 31-243) (ligand)
